This test concerns the target NF-κB p65 protein (mouse (endogenous in CT26)) (UniProt Q04207). Description: co-IP; endogenous proteins in CT26 cell lysate (25 mmol/L Tris-HCl pH 7.4, 150 mmol/L NaCl, 1% NP-40, 1 mmol/L EDTA, 5% glycerol); anti-p65 or anti-PPARγ antibody overnight at 4°C, Protein A+G Agarose, immunoblot; cells untreated or treated with LPE, DMSO, DU101/DU102 or Arf1 knockdown. On the technique in general: Immunoblotting shows a protein as a band on a membrane.

Sequences of proteins named here, by UniProt entry; tags and fusion partners are left off.
UniProt Q04207: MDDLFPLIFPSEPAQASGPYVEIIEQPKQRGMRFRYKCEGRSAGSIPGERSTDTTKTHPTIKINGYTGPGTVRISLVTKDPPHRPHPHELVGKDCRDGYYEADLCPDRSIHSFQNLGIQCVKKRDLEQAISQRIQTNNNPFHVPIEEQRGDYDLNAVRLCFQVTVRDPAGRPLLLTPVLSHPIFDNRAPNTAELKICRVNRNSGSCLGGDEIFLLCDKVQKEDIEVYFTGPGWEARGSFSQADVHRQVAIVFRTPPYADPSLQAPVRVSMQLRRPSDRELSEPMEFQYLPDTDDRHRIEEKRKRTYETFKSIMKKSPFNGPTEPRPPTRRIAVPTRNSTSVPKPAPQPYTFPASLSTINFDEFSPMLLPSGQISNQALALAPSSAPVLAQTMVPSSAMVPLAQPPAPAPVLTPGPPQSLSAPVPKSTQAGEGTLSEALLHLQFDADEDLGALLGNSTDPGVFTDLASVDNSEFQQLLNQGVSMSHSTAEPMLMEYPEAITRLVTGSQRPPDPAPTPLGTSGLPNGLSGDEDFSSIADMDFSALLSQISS
UniProt P37238: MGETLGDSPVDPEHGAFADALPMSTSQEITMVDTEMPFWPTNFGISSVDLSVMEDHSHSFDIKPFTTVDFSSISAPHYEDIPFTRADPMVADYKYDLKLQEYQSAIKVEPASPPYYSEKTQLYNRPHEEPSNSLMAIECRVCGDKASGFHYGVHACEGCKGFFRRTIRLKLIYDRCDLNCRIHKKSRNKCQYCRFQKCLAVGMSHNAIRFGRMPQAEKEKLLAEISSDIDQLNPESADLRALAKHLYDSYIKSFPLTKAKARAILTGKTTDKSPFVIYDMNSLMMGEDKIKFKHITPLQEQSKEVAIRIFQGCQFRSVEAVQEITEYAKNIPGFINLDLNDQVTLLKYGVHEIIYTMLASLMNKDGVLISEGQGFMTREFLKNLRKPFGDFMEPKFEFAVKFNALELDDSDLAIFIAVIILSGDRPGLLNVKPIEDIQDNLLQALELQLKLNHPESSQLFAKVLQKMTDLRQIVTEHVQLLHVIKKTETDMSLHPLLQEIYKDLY

Results are given in words; binding and its absence hold for the method and conditions named. Binding seen in cells or lysates may run through a third protein. Some entries that bind do so weakly or less than the wild type.

For “peroxisome proliferator-activated receptor-γ (PPARγ) (from UniProt P37238 1-505)”, the binding result is recorded as “binds”.
